According to article PMC9935893:
Results are given in words; binding and its absence hold for the method and conditions named. For part of these data: In cells and extracts the contact can be indirect. Some results given as binding are weak or reduced against the parent protein; the word gives no strength. For part of these data: Tags and fused reporters may be left off the sequences shown.

Amino acid sequences for entries named in this document (tags omitted).
UniProt O14744: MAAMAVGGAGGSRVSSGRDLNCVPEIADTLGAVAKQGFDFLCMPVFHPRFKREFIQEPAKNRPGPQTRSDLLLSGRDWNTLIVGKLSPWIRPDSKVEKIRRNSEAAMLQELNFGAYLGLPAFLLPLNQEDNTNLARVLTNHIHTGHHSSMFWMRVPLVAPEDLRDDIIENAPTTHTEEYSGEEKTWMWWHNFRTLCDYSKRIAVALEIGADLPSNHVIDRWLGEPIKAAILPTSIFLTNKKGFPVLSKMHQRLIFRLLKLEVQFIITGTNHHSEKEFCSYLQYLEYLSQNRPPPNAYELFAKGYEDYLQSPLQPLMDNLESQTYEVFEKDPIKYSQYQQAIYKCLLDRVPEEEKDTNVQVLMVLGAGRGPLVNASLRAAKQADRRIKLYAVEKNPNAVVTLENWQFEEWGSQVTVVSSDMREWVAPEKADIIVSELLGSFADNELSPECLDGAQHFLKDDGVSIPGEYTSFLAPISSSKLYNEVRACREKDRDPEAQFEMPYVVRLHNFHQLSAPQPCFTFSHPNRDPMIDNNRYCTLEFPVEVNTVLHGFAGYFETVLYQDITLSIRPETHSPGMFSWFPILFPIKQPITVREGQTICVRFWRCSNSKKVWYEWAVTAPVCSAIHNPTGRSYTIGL
UniProt Q99873: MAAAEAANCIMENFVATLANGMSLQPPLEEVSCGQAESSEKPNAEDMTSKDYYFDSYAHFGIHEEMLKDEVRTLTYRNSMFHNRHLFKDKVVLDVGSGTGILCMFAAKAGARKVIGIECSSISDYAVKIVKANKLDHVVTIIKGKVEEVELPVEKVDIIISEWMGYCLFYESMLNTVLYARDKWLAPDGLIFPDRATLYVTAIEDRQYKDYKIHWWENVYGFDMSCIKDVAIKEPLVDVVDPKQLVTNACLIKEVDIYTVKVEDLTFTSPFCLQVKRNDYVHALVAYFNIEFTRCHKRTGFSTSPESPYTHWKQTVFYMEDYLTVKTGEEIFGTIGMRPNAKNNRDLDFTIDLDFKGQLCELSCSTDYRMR

T1: Unc51-like kinase 3 (ULK3), endogenous (human (endogenous in SCC13 and Cal27)) (UniProt Q6PHR2)
T1 sequence: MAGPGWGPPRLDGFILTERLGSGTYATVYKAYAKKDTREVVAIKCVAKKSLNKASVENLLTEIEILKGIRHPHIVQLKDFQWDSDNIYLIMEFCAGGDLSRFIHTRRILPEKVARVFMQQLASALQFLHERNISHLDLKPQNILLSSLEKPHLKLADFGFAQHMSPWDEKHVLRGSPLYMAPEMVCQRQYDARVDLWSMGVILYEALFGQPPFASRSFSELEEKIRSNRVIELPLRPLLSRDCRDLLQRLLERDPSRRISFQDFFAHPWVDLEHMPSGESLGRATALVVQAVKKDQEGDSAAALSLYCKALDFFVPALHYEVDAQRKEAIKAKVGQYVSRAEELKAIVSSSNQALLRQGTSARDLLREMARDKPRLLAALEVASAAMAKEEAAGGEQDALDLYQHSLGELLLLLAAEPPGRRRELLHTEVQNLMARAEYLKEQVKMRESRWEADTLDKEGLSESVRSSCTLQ

T2: wild-type ULK3, FLAG-tagged, in HeLa cells (UniProt Q6PHR2)
T2 sequence: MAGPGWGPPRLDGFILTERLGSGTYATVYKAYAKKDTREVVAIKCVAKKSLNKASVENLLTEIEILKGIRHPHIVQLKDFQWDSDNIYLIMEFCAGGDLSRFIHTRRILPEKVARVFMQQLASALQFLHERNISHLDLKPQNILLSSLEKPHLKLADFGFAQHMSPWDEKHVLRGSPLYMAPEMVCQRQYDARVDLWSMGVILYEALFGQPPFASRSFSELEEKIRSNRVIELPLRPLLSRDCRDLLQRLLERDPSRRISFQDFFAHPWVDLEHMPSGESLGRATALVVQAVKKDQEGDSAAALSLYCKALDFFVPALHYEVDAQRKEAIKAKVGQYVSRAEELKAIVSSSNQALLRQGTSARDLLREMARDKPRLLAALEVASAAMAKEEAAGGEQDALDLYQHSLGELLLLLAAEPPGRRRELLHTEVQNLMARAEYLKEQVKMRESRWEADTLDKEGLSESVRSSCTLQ

T3: ULK3 (K139R), epitope-tagged, in HEK293T cells (UniProt Q6PHR2)
T3 sequence: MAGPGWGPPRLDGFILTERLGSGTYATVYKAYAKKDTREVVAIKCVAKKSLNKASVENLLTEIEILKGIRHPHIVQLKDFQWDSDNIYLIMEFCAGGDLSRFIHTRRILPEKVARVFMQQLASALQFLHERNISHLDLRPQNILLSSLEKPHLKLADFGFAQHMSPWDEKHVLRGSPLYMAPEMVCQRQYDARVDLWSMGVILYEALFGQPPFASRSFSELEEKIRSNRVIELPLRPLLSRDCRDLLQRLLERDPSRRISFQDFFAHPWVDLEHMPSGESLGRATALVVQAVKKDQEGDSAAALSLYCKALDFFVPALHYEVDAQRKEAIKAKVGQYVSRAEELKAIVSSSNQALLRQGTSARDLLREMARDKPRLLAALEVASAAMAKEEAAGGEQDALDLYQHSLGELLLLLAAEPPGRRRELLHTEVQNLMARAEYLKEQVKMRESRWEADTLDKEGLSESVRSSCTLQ

T4: wild-type ULK3, epitope-tagged, in HEK293T cells (UniProt Q6PHR2)
T4 sequence: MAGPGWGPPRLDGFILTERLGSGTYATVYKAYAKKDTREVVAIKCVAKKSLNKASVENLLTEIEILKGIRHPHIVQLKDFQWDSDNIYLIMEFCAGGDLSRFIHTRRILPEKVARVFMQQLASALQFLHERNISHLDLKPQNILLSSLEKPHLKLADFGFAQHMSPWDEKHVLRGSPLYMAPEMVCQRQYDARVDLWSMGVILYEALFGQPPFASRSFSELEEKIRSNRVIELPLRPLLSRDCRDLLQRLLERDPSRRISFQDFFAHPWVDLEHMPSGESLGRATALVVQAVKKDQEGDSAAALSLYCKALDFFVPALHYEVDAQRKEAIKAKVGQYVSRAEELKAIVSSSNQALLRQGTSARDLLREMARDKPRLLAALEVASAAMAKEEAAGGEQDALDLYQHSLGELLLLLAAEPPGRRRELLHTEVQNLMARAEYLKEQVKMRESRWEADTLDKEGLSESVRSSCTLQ

T5: ULK3 (K44H), epitope-tagged, in HEK293T cells (UniProt Q6PHR2)
T5 sequence: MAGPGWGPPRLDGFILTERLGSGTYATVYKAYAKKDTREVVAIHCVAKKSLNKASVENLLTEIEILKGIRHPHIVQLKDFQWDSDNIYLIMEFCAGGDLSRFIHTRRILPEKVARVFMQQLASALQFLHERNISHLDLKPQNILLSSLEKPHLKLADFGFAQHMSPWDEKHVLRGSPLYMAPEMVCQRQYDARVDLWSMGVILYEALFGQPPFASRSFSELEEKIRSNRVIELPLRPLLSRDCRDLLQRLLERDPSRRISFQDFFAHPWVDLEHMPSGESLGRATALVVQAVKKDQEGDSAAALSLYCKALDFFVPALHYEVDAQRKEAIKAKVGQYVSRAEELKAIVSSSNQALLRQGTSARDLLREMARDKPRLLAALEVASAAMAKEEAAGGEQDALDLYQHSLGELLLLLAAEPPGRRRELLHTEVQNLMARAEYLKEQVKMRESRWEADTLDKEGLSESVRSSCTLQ

T6: purified recombinant His-tagged ULK3 (UniProt Q6PHR2)
T6 sequence: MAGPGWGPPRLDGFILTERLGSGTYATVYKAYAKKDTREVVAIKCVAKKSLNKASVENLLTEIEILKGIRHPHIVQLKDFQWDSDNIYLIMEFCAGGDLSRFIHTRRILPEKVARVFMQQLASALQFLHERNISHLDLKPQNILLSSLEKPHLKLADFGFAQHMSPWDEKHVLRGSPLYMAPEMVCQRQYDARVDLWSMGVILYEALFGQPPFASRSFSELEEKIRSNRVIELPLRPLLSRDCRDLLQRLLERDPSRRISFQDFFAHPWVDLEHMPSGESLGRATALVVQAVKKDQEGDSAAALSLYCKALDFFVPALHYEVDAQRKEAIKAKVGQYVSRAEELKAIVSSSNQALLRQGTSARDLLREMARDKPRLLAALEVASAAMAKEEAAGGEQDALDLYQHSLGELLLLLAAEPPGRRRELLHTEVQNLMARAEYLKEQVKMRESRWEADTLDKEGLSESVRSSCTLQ


How the values were obtained:
[1] = target: T1, Unc51-like kinase 3 (ULK3), endogenous (human (endogenous in SCC13 and Cal27)); test: proximity ligation; Duo-link PLA on Cal27 and SCC13 cells with anti-ULK3 and anti-PRMT1 or anti-PRMT5 antibodies; anti-ULK3 alone or IgG as controls; endogenous proteins
[2] = target: T2, wild-type ULK3, FLAG-tagged, in HeLa cells; test: co-IP; HeLa cells mock-transfected or transfected with ULK3 vectors; IP with FLAG antibodies; immunoblot of endogenous PRMT1 and PRMT5
[3] = target: T1, Unc51-like kinase 3 (ULK3), endogenous (human (endogenous in SCC13 and Cal27)); test: co-IP; SCC13 cells, endogenous proteins; IP with anti-ULK3 or IgG then PRMT1 and PRMT5 immunoblot; IP with anti-PRMT1, anti-PRMT5 or IgG then ULK3 immunoblot
[4] = target: T3, ULK3 (K139R), epitope-tagged, in HEK293T cells; test: co-IP; HEK293T (text: HEK293) cells transfected with epitope-tagged ULK3 vectors; IP with anti-epitope antibodies (FLAG or V5); immunoblot of endogenous PRMT1 and PRMT5
[5] = target: T4, wild-type ULK3, epitope-tagged, in HEK293T cells; test: as above
[6] = target: T5, ULK3 (K44H), epitope-tagged, in HEK293T cells; test: as above
[7] = target: T6, purified recombinant His-tagged ULK3; test: pull-down; recombinant FLAG-PRMT1 or FLAG-PRMT5 admixed with His-ULK3, pulled down with HisPur Ni-NTA magnetic beads; 150 mM NaCl, 100 mM Tris pH 8, 0.5% NP40, 10% glycerol, 4 h at 4 °C; one wash at 300 mM NaCl; FLAG and ULK3 immunoblots; both purified
[8] = target: T6, purified recombinant His-tagged ULK3; test: condition: only PRMT heated for 20 min at 90 °C before incubation with ULK3; pull-down; recombinant PRMT1 and PRMT5 heated for 20 min at 90 °C before incubation with His-ULK3; Ni-NTA pull-down and immunoblots as for the unheated proteins; both purified
[9] = target: recombinant FLAG-tagged PRMT5 (UniProt O14744); test: pull-down; recombinant FLAG-PRMT1 or FLAG-PRMT5 incubated with His-ULK3, PRMT pulled down with anti-FLAG antibodies and protein G magnetic beads; 150 mM NaCl, 100 mM Tris pH 8, 0.5% NP40, 10% glycerol, 4 h at 4 °C; immunoblots; both purified
[10] = target: recombinant FLAG-tagged PRMT1 (UniProt Q99873); test: as above

binding [1] | binding [2] | binding [3] | binding [4] | binding [5] | binding [6] | binding [7] | binding [8] | binding [9] | binding [10] | Molecule
 |  |  |  |  |  | binds | no binding |  |  | recombinant FLAG-tagged PRMT5 (from UniProt O14744 1-637) (enzyme)
 |  |  |  |  |  | binds | no binding |  |  | recombinant FLAG-tagged PRMT1 (from UniProt Q99873 1-371) (enzyme)

Second part, the molecule before the results:

Molecule | binding [1] | binding [2] | binding [3] | binding [4] | binding [5] | binding [6] | binding [7] | binding [8] | binding [9] | binding [10]
PRMT5, endogenous (from UniProt O14744 1-637) (enzyme) | binds | binds | binds | binds | binds | binds |  |  |  | 
PRMT1, endogenous (from UniProt Q99873 1-371) (enzyme) | binds | binds | binds | binds | binds | binds |  |  |  | 
purified recombinant His-tagged ULK3 (enzyme, UniProt Q6PHR2 1-472) MAGPGWGPPRLDGFILTERLGSGTYATVYKAYAKKDTREVVAIKCVAKKSLNKASVENLLTEIEILKGIRHPHIVQLKDFQWDSDNIYLIMEFCAGGDLSRFIHTRRILPEKVARVFMQQLASALQFLHERNISHLDLKPQNILLSSLEKPHLKLADFGFAQHMSPWDEKHVLRGSPLYMAPEMVCQRQYDARVDLWSMGVILYEALFGQPPFASRSFSELEEKIRSNRVIELPLRPLLSRDCRDLLQRLLERDPSRRISFQDFFAHPWVDLEHMPSGESLGRATALVVQAVKKDQEGDSAAALSLYCKALDFFVPALHYEVDAQRKEAIKAKVGQYVSRAEELKAIVSSSNQALLRQGTSARDLLREMARDKPRLLAALEVASAAMAKEEAAGGEQDALDLYQHSLGELLLLLAAEPPGRRRELLHTEVQNLMARAEYLKEQVKMRESRWEADTLDKEGLSESVRSSCTLQ |  |  |  |  |  |  |  |  | binds | binds
